Assay results reported in PubChem BioAssay AID1347426 (Functional Genomics Laboratory (NCATS/FGL), 2020).
Out of some 31,000 sequences screened, about 1,400 (4.5%) were called active.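 The calls were made as follows: active = median seed-adjusted z-score above 1 or below -1; inactive = the rest.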 This is one part of the list.

Experiment: Novel Modifiers of Survival Motor Neuron (SMN) Protein: Gene Identification via Genome-wide siRNA Screen;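 also: luminescence tracks full-length SMN protein made from the SMN2 reporter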
Details: HEK293T SMN2-luciferase reporter, siRNA knockdown, 72 h; actives lie on both sides
Outline: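 HEK293T cells stably expressing an SMN2 splicing/cDNA-luciferase reporter were reverse-transfected with a druggable-genome siRNA library and read by luminescence at 72 hours; hits defined by MAD score above 1.0 or below -1.0.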

Row | Sequence | median seed-adjusted z-score
1 | ACAUGACCUUCAUUCAUGATT against RAPGEF3 | inactive: -0.481
2 | CCCGUCAUCUCGUUACAAATT against ARHGEF18 | inactive: 0.586
3 | CCACCUAUAAAGUUCUAAATT against CAPRIN1 | active: 1.36
4 | GGAAUUUCAUGUUCGGAAUTT against PAFAH2 | inactive: 0.0216
5 | ACGCGGUUCUGGAGAGUCATT against DHH | inactive: 0
6 | CAGUUGAUAUUCAUAAAGATT against ABI2 | inactive: -0.0392
7 | CCCAAUCUCUCAGACCCACTT against GP1BB | inactive: -0.711
8 | CUAGACUUGUCACAAAUGATT against PARS2 | inactive: -0.433
9 | CCAUAUCCCACAGCAAUUUTT against CACNB4 | inactive: -0.223
10 | GAUGUAACAUUGACAUUGATT against NOTCH2 | inactive: 0.000598
11 | CCAUGAUCUCGAAUAUGAATT against CNGA3 | inactive: -0.125
12 | GGAUACAUCACUAGAUAAATT against MAP2K6 | inactive: -0.889
13 | GGAUCGAGGAAAUAACAAUTT against DDX42 | active: -2.13
14 | GCAUGUCUCCAGUACAGAATT against DIO2 | inactive: -0.549
15 | GCGUUUAUCCGGUUUGACATT against ELAVL1 | inactive: 0.316
16 | GCAUUCUUGCAGAUCGUAUTT against SEC23A | inactive: 0.131
17 | GGAAAGAGAUUCAACAACATT against ZNF434 | inactive: 0.545
18 | AGAAAUACAUGAAGCCCAATT against RNF113A | inactive: -0.128
19 | GCAGCGCAGUGUUACUCCATT against ARPC5L | inactive: -0.36
20 | CGGAAAAACCUACUGCGAATT against FARSA | inactive: -0.158
21 | GAACUGGGACUAACACCUATT against C2 | inactive: -0.0549
22 | GUGUGGAUCUGUGGACUCATT against CRB2 | inactive: 0

Look-ups from above:
Value for GAUGUAACAUUGACAUUGATT against NOTCH2 under median seed-adjusted z-score: inactive: 0.000598
Value for AGAAAUACAUGAAGCCCAATT against RNF113A under median seed-adjusted z-score: inactive: -0.128

Additional results

Row | Sequence | median seed-adjusted z-score
23 | GAACUUGACCAUUAUAUCATT against PHKA2 | inactive: 0.304
24 | GGACACGUGUCAUCCGAAATT against IQGAP2 | inactive: 0.194
25 | GAAAGUUCAAGUACAGUGATT against CYP2E1 | inactive: 0.81
26 | GGUUAACUUCUUGAGCUAUTT against APOA2 | inactive: -0.297
27 | GAACCUGACAUUUCGAGAATT against PLCXD2 | inactive: -0.0211
28 | CUUACGAAGCUUAACCCAATT against TNS3 | inactive: 0.18
29 | GCCUCAUCAUCACCGCGAATT against GPBAR1 | inactive: -0.00293
30 | GCCUUCAAGAUGAACCGCATT against SETBP1 | inactive: 0.0232
31 | GAAUGGUAGAACAAGGUGATT against ADAM10 | inactive: 0.14
32 | GGAGUUUCCCAUCAAACGATT against PADI4 | inactive: 0.417
33 | CGAGUUCUCAGACUCCUAUTT against CTPS | inactive: 0.0943
34 | GUGUCUAAAUGUACCAGUUTT against TIGD4 | inactive: -0.553
35 | CGGUCAUACGUAAGAACGATT against P2RY12 | inactive: 0.143
36 | GGUGAAUUCAAGCUCCUCATT against ELK3 | inactive: -0.16
37 | AGAGGGCACUGGACCUGAATT against UQCRB | inactive: 0.348
38 | GCACAAGUUUGAGCUAGAATT against APOL5 | inactive: -0.209
39 | AGAUCGUGGUACAGAAGAATT against RBCK1 | inactive: 0.479
40 | CGAGCAAGGUCCUUCCAUATT against IGFBP7 | inactive: 0.116
41 | GGCUUGCUCGUAUUGAUUUTT against SLC40A1 | inactive: -0.177
42 | AGUCCUACGUACAAUGUCATT against MED25 | inactive: -0.589
43 | GGUUUGAAGGGUUGACUCATT against STK38L | inactive: 0.079
44 | GCUACGAUGGAUCACCCUATT against HSD3B7 | inactive: -0.0819

Row | Sequence | median seed-adjusted z-score
45 | CCUAGACUCUCGCACUGAATT against TIMM8B | inactive: -0.853
46 | CCCAGUUAGUAUUAUCAUATT against HS3ST3A1 | inactive: -0.133
47 | GCGGCUCCAUUUACCAGAATT against VDAC1 | inactive: 0.133
48 | GCAAAGUGCUAAUUGAUAUTT against SUB1 | inactive: -0.571
49 | CAGCAGUACCGACAGAAGATT against ATAD3B | inactive: -0.624
50 | GCACUUUCGCUACAUUUCATT against AQP11 | inactive: -0.0455
51 | GUGUGGAUCCUAACCGGAATT against CPA2 | inactive: 0.0374
52 | GGCUACUUCAUGAUACAGATT against GABRA6 | inactive: 0.466
53 | GCAUCAUCAUCCGAAAUGATT against HECTD2 | inactive: 0.405
54 | GGGAUGAGCUGAAUGUCAATT against KLHL18 | inactive: -0.126
55 | GGACAGCAGUGACAUCGGATT against TWIST2 | inactive: 0.363
56 | GCACUGCUGUUUCCUCUCATT against SBF1 | inactive: 0.192
57 | GCAAGUUACUUAUCAAGCUTT against AIFM1 | inactive: 0.0499
58 | GGUACAUCGCGAUAUCAAATT against YSK4 | inactive: -0.181
59 | CGGUGUGAAGAUGAUCUAATT against DNAJC24 | inactive: -0.0166
60 | CACCUAUAGUGACGAUAUATT against MEP1B | active: 1.46
61 | CCUUAUGAACUGUUGUUAATT against ANKS1A | inactive: -0.0165
62 | GAAGGAAGAUAGUUCGAGATT against DNAJA1 | inactive: -0.00548
63 | CAACACCUACUGUCUGGUATT against EIF6 | inactive: 0
64 | UAAUGACCCUAUCUAUAAATT against UGT2B17 | inactive: -0.0203
65 | AAGCUGAUGUUAACAUCGATT against CDKN2C | inactive: -0.0789
66 | GCAUAUUAAGGAGACCUAUTT against HSD17B6 | inactive: 0.573

Row | Sequence | median seed-adjusted z-score
67 | CAAAGAAUGUGGACAUGCUTT against CXCL16 | inactive: 0.201
68 | CUAAGACUGUGGACGAGAATT against SBF1 | inactive: 0.192
69 | GCCCGUCUGCAGUACCUAATT against ADAP2 | active: -1.1
70 | GCAGGAAGAUUGUGAUUCUTT against SEC14L4 | inactive: -0.714
71 | GGUUGGACACUAUACAUAATT against SLC39A1 | inactive: 0.658
72 | GAAUUGGCCGUUGGGCUUATT against COX8A | inactive: -0.0749
73 | GAGUUUCAUUUCACGACAATT against TTLL11 | inactive: 0.00825
74 | GGAGCACAAUACUUGGGAATT against CBX5 | inactive: 0.404
75 | GAUACUGUCUGAUCAUCAATT against CASP8 | inactive: 0.413
76 | CGGGCUCCGUAGUCACAUUTT against NAALADL1 | inactive: -0.0444
77 | GGAUAGAGUUUACCGAAUUTT against ERCC6L | inactive: -0.0229
78 | CCAACUACAUCUCACUCUATT against KDELR1 | inactive: -0.0168
79 | GCCUCAACAUCCUCAGAGATT against UBE2M | inactive: 0.0974
80 | GCUGAGCUACGGUAUGUUUTT against LFNG | inactive: -0.13
81 | CCGUGUCUUCAGGAACGAATT against CYB561 | inactive: 0
82 | GAUCCGAGAUCAACACCUUTT against PIK3R3 | active: -1.88
83 | GACCUGAAAGAAGACUAUATT against PAFAH2 | inactive: 0.0216
84 | GGUCCAUUCCAACUGCUCATT against MYOCD | inactive: -0.121
85 | GCUUUUCGUUAGCAUGCAATT against ABCA8 | inactive: -0.666
86 | GGAUGCUUCUGAAUAGAAATT against BIRC7 | active: -1.44
87 | GAAAGACUUGUUUAUAUUATT against ADRB1 | active: 1.06
88 | AUAGCCUUGUUGAAACUAUTT against PCDHA8 | inactive: 0

Row | Sequence | median seed-adjusted z-score
89 | GAACUUACCUGCCUCUUCATT against SLC22A18 | inactive: -0.654
90 | ACGCUUUCCUCGACGAGAATT against OPRD1 | inactive: 0.314
91 | ACUACUUCAUCCUAACUGATT against FOXRED2 | inactive: 0.0294
92 | GGACCAUUUAGAGAAGGUUTT against WARS2 | inactive: 0.21
93 | CGAUAGAACUAGAUGGAAATT against RAB8B | inactive: -0.259
94 | GCGAAUAUGUGGAUCGAGATT against DOCK1 | inactive: -0.235
95 | AGGGCUGCAUGAAAAUUCATT against AICDA | inactive: 0.289
96 | GGAGAAUAGUAAGCGUAAATT against TRIP10 | inactive: -0.261
97 | GGAGAACAACGUAGAUGCATT against PC | inactive: 0.2
98 | GGAGGAAUAUGAGCCGGAATT against MAP1B | inactive: 0.139
99 | GCCUGAGCUUUGAUCGAGATT against PCDH1 | inactive: -0.514
100 | AGAUCUUGGUUCCUCUAAUTT against L3MBTL | inactive: 0.0232
101 | CAGUCUAAAUCUCAAGCUATT against TCF20 | inactive: 0.392
102 | AGCUUGUGCCCAUACCAAUTT against ITGB7 | inactive: 0.443
103 | GGUGUUAAGAUGUUGAGUATT against RFWD3 | inactive: 0.554
104 | GUGUAGGGAUAGUUACCAATT against ZNF518A | inactive: -0.252
105 | AGAUGAAGUCUAUAUCAAATT against C1QL3 | inactive: -0.276
106 | UGGAGUAUCCUAUCAUGUATT against MGST3 | inactive: -0.0509
107 | CUGGGAGCAUUAUCAGGAATT against TARS2 | inactive: -0.0143

Reprinted at random: 2 records from the list
Row | Sequence | median seed-adjusted z-score
107 | CUGGGAGCAUUAUCAGGAATT against TARS2 | inactive: -0.0143
97 | GGAGAACAACGUAGAUGCATT against PC | inactive: 0.2
